Results as given in PubChem BioAssay AID1347076 (National Center for Advancing Translational Sciences (NCATS), 2019).
In all, about 400,000 compounds went through this assay and about 13,000 (3.2%) were called active. Inconclusive results, whose numbers are uncertain, are shown with a selection of clear calls. Calls come from the whole dose curve; as a rule, active = well fitted cell-killing curve with a large enough effect; inconclusive = small, poorly fitted or top-dose-only effect, or effect the other way; inactive = flat fitted curve, though single readings scatter. Where the call is inconclusive, the potency comes from a doubtful curve fit.

assay: qHTS assay for MDR1-selective chemotherapeutics: Primary screen using the drug-selected MDR subline cells KB-V1; conditions: KB-V1 MDR cells viability, CellTiter-Glo, 72 h; activity change, negative = cytotoxicity: at 46.1 µM (top of the series); note: nearly all actives have a fitted effect of over 60% in size
Procedure, shortened: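 qHTS viability screen in drug-selected KB-V1 MDR cells: 72 h compound treatment at 37 degrees C, ATP luminescence end point.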
% is set by controls: 0 for no effect and ±100 for the full control effect; potency is the fitted concentration of half-maximal effect.

Row | SMILES | Potency | activity change, negative = cytotoxicity
1 | CCc1ccc(NC(=O)CSc2nc3c(c(=O)[nH]2)CN(Cc2ccc4c(c2)OCO4)CC3)cc1 | inconclusive: 16.4 µM [rising, single point] | –
2 | Fc1ccc(C(c2nnnn2C2CCCC2)N2CCc3ccccc32)cc1 (stereo not given) | inconclusive: 18.4 µM [cytotoxic, single point] | –
3 | C=C(C)COc1ccc(-c2nc(N)ncc2Oc2ccccc2OC)c(O)c1 | inconclusive: 18.4 µM [cytotoxic, single point] | –
4 | CC(C)C1N=C2c3ccccc3N=C(SCC(=O)NCCc3ccc(S(N)(=O)=O)cc3)N2C1=O (stereo not given) | inconclusive: 14.6 µM [rising, partial curve, poor fit] | –
5 | CCOc1cc(C(=O)NCc2ccc3c(c2)OCO3)cc(OCC)c1OCC | inconclusive: 1.46 µM [cytotoxic, full curve, poor fit] | –
6 | COc1ccc(CCN2CC(C(=O)Nc3ccc(S(C)(=O)=O)cc3)CC2=O)cc1OC (stereo not given) | – | inactive: 14.1%
7 | CC(=O)CC1c2cc(F)ccc2C=C(c2ccsc2)N1c1ccc(-c2ccc(C(N)=O)cc2)cc1 (stereo not given) | inconclusive: 32.6 µM [cytotoxic, single point] | –
8 | Cc1noc(C)c1C(=O)N1CCC1(C)C(=O)NS(=O)(=O)c1ccccc1Cl (stereo not given) | – | inactive: 3.13%
9 | O=C(Nc1ccc(Br)c(Cl)c1)c1ccc(C(=O)Nc2ccc(Br)c(Cl)c2)cc1 | inconclusive: 18.4 µM [rising, single point] | –
10 | CCCNC(=O)N1CCN(S(=O)(=O)c2ccc(C)c(C)c2)CC1 | inconclusive: 7.31 µM [cytotoxic, partial curve] | –
11 | O=C(CCNS(=O)(=O)c1cccs1)NCc1ccco1 | – | inactive: 10.5%
12 | Cc1csc2nc(COC(=O)c3ccc(Cl)c([N+](=O)[O-])c3)cc(=O)n12 | – | inactive: 16.2%
13 | CCNC(=O)C1(C)CCN(C(=O)c2ccccc2OC(F)(F)F)C1 (stereo not given) | – | inactive: -18.2%
14 | Nc1nc(-c2ccc(Cl)cc2)c(S(=O)(=O)c2ccccc2)s1 | – | inactive: 0%
15 | COc1ccc(/C=C/c2ccc3ccccc3[n+]2C)cc1OC | inactive | –
16 | CCOCCCn1c(=N)c(S(=O)(=O)c2ccc(C)cc2)cc2c(=O)n3cc(C)ccc3nc21 | inconclusive: 1.3 µM [cytotoxic, partial curve] | –
17 | CCN(CC)c1nc(N)c2c(N)nc(OC)cc2c1C#N | inconclusive: 29.1 µM [cytotoxic, single point] | –
18 | O=C(NCCN1C(=O)S/C(=C/c2ccccc2)C1=O)C1CCCN1C(=O)c1cccs1 (stereo not given) | inconclusive: 10.3 µM [cytotoxic, partial curve, poor fit] | –
19 | COc1ccc(S(=O)(=O)N2CCCCCC2)cc1C(=O)N(C)CCOc1ccccc1 | inconclusive: 11.6 µM [cytotoxic, partial curve] | –
20 | CCOC(=O)c1sc(=S)n(-c2ccc(Cl)cc2)c1SC | inconclusive: 18.4 µM [cytotoxic, single point] | –
21 | CC1CCCN(C(=O)CCCn2c(=S)[nH]c3ccccc3c2=O)C1 (stereo not given) | active: 8.2 µM | –
22 | COc1ccc(CCN(C)CC(=O)Nc2cc(C)nc3ccccc23)cc1OC | inconclusive: 4.11 µM [cytotoxic, partial curve] | –
23 | O=S(=O)(c1cccs1)N1CCC(CO)(Cc2cccc(F)c2)CC1 | inconclusive: 16.4 µM [cytotoxic, single point] | –
24 | COc1ccc(C(=O)c2sc3nc4c(c(C(F)(F)F)c3c2N)CN(C(C)=O)CC4)cc1OC | inconclusive: 29.1 µM [cytotoxic, single point] | –

A few values from the entries so far:
Under Potency, COc1ccc(CCN(C)CC(=O)Nc2cc(C)nc3ccccc23)cc1OC reads inconclusive: 4.11 µM [cytotoxic, partial curve]
Under Potency, CC(C)C1N=C2c3ccccc3N=C(SCC(=O)NCCc3ccc(S(N)(=O)=O)cc3)N2C1=O (stereo not given) reads inconclusive: 14.6 µM [rising, partial curve, poor fit]

The results go on.

Row | SMILES | Potency | activity change, negative = cytotoxicity
25 | Cc1ccccc1C(=O)Nc1cccc(-c2nnc(SCC(=O)O)n2C)c1 | inconclusive: 29.1 µM [rising, single point] | –
26 | Cc1onc(-c2ccccc2Cl)c1C(=O)OCn1nnc2ccccc2c1=O | inconclusive: 14.6 µM [cytotoxic, partial curve] | –
27 | CC(C)CNS(=O)(=O)c1ccccc1C(=O)N1CCCCC1 | active: 14.6 µM | –
28 | COc1ccc(CN2C[C@@H](CO)O[C@@H](n3cnc4c(NCc5ccco5)ncnc43)C2)cc1 | – | inactive: 2.57%
29 | CCOP(=O)(OCC)C(Cc1ccc(OC)c(OC)c1)N=C(c1ccccc1)c1ccccc1 (stereo not given) | active: 14.6 µM | –
30 | Cc1cc(CN(C)C(=O)c2ccc(OC3CCN(S(=O)(=O)N(C)C)CC3)cc2)n[nH]1 | – | inactive: 28%
31 | Cc1cc([N+](=O)[O-])nn1CCCC(=O)O | inconclusive: 23.1 µM [rising, partial curve] | –
32 | COc1cccc2nccc(/C=C/c3ccc(N(C)C)cc3)c12 | inconclusive: 29.1 µM [cytotoxic, single point] | –
33 | Cc1cccc(C(=O)NCc2nnc3c4ccccc4c(-c4ccccc4)nn23)c1 | inconclusive: 2.91 µM [cytotoxic, full curve, poor fit] | –
34 | CN(C)CCOC(=O)c1ccc2c(c1)S(=O)(=O)c1ccccc1C2=O | – | inactive: 19.9%
35 | Cc1cccc(C)c1C(O)c1ncc(-c2ccccc2Cl)[nH]1 (stereo not given) | – | inactive: 3.09%
36 | O=C1OCCN1/N=C/c1ccc([N+](=O)[O-])o1 | – | inactive: -23.5%
37 | CCOc1cc(NC(=O)C2CCCO2)c(OCC)cc1NC(=O)C1CC1 (stereo not given) | inconclusive: 20.6 µM [cytotoxic, partial curve, poor fit] | –
38 | CC1(OC(=O)c2ccco2)C(=O)C=C2C=C(C3CC3)OC=C2C1=O (stereo not given) | inconclusive: 5.17 µM [rising, partial curve] | –
39 | COc1ccccc1-c1nnc(NC(=O)c2ccc3ncsc3c2)o1 | inconclusive: 10.3 µM [cytotoxic, partial curve, poor fit] | –
40 | Nc1cc(Cl)ccc1C(=O)OCC(=O)NC1CCS(=O)(=O)C1 (stereo not given) | inconclusive: 0.731 µM [rising, partial curve] | –
41 | CCN(Cc1ccccc1)c1ncnc2c1cnn2-c1ccc(F)cc1 | inconclusive: 32.6 µM [cytotoxic, single point] | –
42 | COc1cccc(Nc2nc(-c3ccccc3)nc3ccccc23)c1 | – | inactive: -0.667%
43 | COc1ccc(C(NC(=O)C2CCN(CCCc3ccccc3)CC2)c2cccs2)cc1 (stereo not given) | inconclusive: 8.2 µM [cytotoxic, partial curve] | –
44 | Cc1cccc(C(=O)NC(=S)Nc2ccc(Cc3ccncc3)cc2)c1 | – | inactive: 0%
45 | NC(=O)N/N=C/c1ccc2cccc(OCc3ccccc3)c2n1 | – | inactive: -15.8%
46 | COc1ccc(S(=O)(=O)N2CCOCC2)cc1NC(=O)CSc1nnnn1C1CC1 | inconclusive: 11.6 µM [cytotoxic, partial curve] | –
47 | Cc1nnc(SCC(=O)Nc2nccs2)n1C(C)C | inconclusive: 23.1 µM [rising, single point] | –
48 | CCOC(=O)c1c(C)n(-c2ccc(C)cc2)c2ccc(OCC(O)CNCC3CCCO3)cc12 (stereo not given) | inconclusive: 29.1 µM [cytotoxic, single point] | –

Row | SMILES | Potency | activity change, negative = cytotoxicity
49 | CCOC(=O)CC(NC(=O)c1cccs1)c1ccc(OCC)cc1 (stereo not given) | inconclusive: 29.1 µM [cytotoxic, single point] | –
50 | COc1cccc(/C=N/Nc2snc(SC)c2C#N)c1O | active: 16.4 µM | –
51 | CCN1C(=O)CCC(C(=O)O)C1c1ccc(OC)cc1 (stereo not given) | – | inactive: 19.6%
52 | CC1(C)c2[nH]c3ccccc3c2C[C@H]2C(=O)N(Cc3ccccc3F)C(=O)N21 | inconclusive: 4.11 µM [cytotoxic, full curve] | –
53 | Cc1ccc(C(=O)Nc2ccc3ccccc3c2)cc1 | – | inactive: -9.66%
54 | CC1CC(C)CN(CC(O)COC2CC(C)CC(C)(C)C2)C1 (stereo not given) | inconclusive: 16.4 µM [cytotoxic, partial curve] | –
55 | CC(C)(C)c1ccc(/C=C(\c2nc3ccccc3[nH]2)S(=O)(=O)c2ccccc2)cc1 | inconclusive: 20.6 µM [cytotoxic, single point] | –
56 | Cc1nc(Nc2cccc(F)c2)c2oc3ccccc3c2n1 | – | inactive: -2.96%
57 | Cc1cc(NS(=O)(=O)c2ccc(N3C(=O)C4C5C=CC(C5)C4C3=O)cc2)nc(C)n1 (stereo not given) | inconclusive: 13 µM [rising, partial curve, poor fit] | –
58 | O=[N+]([O-])c1cc(C=Nc2ccc3ccccc3c2)ccc1Br | inconclusive: 29.1 µM [cytotoxic, single point] | –
59 | Clc1ccccc1OCCn1cnc2ccccc21 | active: 20.6 µM | –
60 | O=C(N1CCN(c2ccccn2)CC1)N1c2ccccc2Sc2ccccc21 | active: 1.84 µM | –
61 | Cc1cc(O)c(C(C)C)cc1NC(=O)c1ccccc1Cl | inconclusive: 23.1 µM [cytotoxic, partial curve] | –
62 | Cc1c(NC(=O)c2c(NC(=O)CNC3CC3)sc3c2CCCC3)c(=O)n(-c2ccccc2)n1C | inconclusive: 11.6 µM [cytotoxic, partial curve, poor fit] | –
63 | Clc1ccc(-n2ncc3c(N4CCCC4)ncnc32)cc1 | inconclusive: 5.8 µM [cytotoxic, full curve] | –
64 | Cc1ccc2c(cnn2C(=O)CCCC(=O)NCc2ccc(Cl)cc2)c1 | inconclusive: 25.9 µM [cytotoxic, single point] | –
65 | Cc1ccc(NC(=O)Cc2nn(C)c(=O)c3ccccc23)cc1F | active: 2.06 µM | –
66 | COc1c(CC=C(C)C)cc(C2CC(=O)c3c(O)cc(O)cc3O2)c(CC=C(C)C)c1O (stereo not given) | – | inconclusive: -36.1% [cytotoxic]
67 | C=CCCc1ccc(C#N)c(SCc2c(C(=O)OCC)c3cc(OC(C)=O)c(Br)cc3n2C)n1 | active: 2.59 µM | –
68 | CC(=O)Nc1ccc(NC(=O)C(C)OC(=O)c2ccc3c(c2)OCCO3)cc1 (stereo not given) | – | inconclusive: -33.5%
69 | Cn1c2c(c(=O)n(C)c1=O)C(C(F)(F)F)(C(F)(F)F)N=C(CCC1CCCCC1)N2 | inconclusive: 8.2 µM [cytotoxic, partial curve, poor fit] | –
70 | COCCC(=O)N1CCC(Oc2ccc(C(=O)NCCC3=CCCCC3)cc2)CC1 | inconclusive: 4.11 µM [cytotoxic, partial curve, poor fit] | –

Some of the entries so far, as labelled records:
CC1CC(C)CN(CC(O)COC2CC(C)CC(C)(C)C2)C1 (stereo not given)
  Potency: inconclusive: 16.4 µM [cytotoxic, partial curve]
C=CCCc1ccc(C#N)c(SCc2c(C(=O)OCC)c3cc(OC(C)=O)c(Br)cc3n2C)n1
  Potency: active: 2.59 µM
